Results as given in PubChem BioAssay AID1347076 (National Center for Advancing Translational Sciences (NCATS), 2019).
Where “and” joins values, the source holds several entries; their conditions need not be identical. Equal values may be shown once. Among all 400,000 compounds or so, about 13,000 (3.2%) were called active. The inconclusive results got no clear call from the source; some entries with a clear call stand among them for comparison. Calls come from the whole dose curve; as a rule, active = well fitted cell-killing curve with a large enough effect; inconclusive = small, poorly fitted or top-dose-only effect, or effect the other way; inactive = flat fitted curve, though single readings scatter. Potencies beside an inconclusive call are fits to weak or partial responses and may not hold up.

experiment: qHTS assay for MDR1-selective chemotherapeutics: Primary screen using the drug-selected MDR subline cells KB-V1; details: KB-V1 MDR cells viability, CellTiter-Glo, 72 h; activity change, negative = cytotoxicity: at 46.1 µM (top of the series); note: nearly all actives have a fitted effect of over 60% in size
Outline: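 Cytotoxicity toward P-gp-expressing KB-V1 cells was determined as loss of CellTiter-Glo luminescence after 72 h at 37 degrees C. Compounds were tested in quantitative HTS format across a concentration range, with curves fitted to normalized data.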
% is set by controls: 0 for no effect and ±100 for the full control effect; potency is the fitted concentration of half-maximal effect.

SMILES | activity change, negative = cytotoxicity | Potency
CCCCN1C(=O)C(CC(=O)NCc2cccs2)CC(C(=O)N2CCOCC2)=C1C (stereo unspecified) | inactive: 21.1% | –
Cc1cccc(N=C2NC(=O)/C(=C/c3cn(C)c4ccccc34)S2)c1 | – | active: 14.6 µM
O=C(NCC(c1ccco1)N1CCc2ccccc21)c1cccc([N+](=O)[O-])c1 (stereo unspecified) | – | inconclusive: 29.1 µM [cytotoxic, single point]
C(=C\c1ccccc1)/CSc1nnc(-c2ccccc2)n1Cc1ccco1 | – | active: 18.4 µM
CSc1ccccc1NC(=O)c1c(Br)cnn1C | – | inconclusive: 29.1 µM [cytotoxic, single point]
CC(=O)Nc1ccc(S(=O)(=O)N2CCN=C2SCc2ccc(C)cc2)cc1 | inactive: 23.1% | –
COC1=CC(=O)c2nc(Cl)ccc2C1=O | – | inconclusive: 32.6 µM [cytotoxic, single point]
CCOC(=O)c1ccccc1NC(=O)N1CCC(N2CCN(Cc3ccccc3)C(=O)C2=O)CC1 | – | inconclusive: 29.1 µM [rising, single point]
COc1ccc2oc(C(=O)OC(C)C(=O)N(C)c3ccccc3)c(C)c2c1 (stereo unspecified) | – | inconclusive: 9.2 µM [cytotoxic, partial curve]
CCc1ccc2cccc3c2c1N=CN3C | – | inconclusive: 29.1 µM [cytotoxic, single point]
CNC(CC(=O)c1ccc([N+](=O)[O-])cc1)C(Cl)(Cl)Cl (stereo unspecified) | inactive: -16.6% | –
COC(=O)c1ccccc1NC(=O)COC(=O)c1ccc(C)c(NC(=O)c2ccco2)c1 | – | active: 3.66 µM
CCNC(=O)NC(=O)C(C)OC(=O)c1oc2ccccc2c1CSC1CCCCC1 (stereo unspecified) | – | active: 13 µM
CC(C)/C=C/CN1CCN(CCCc2ccccc2)C(CCO)C1 (stereo unspecified) | inactive: 5.63% | –
O=C(/C=C/Nc1ccc(Oc2ccccc2Cl)cc1)c1ccco1 | – | inconclusive: 18.4 µM [cytotoxic, partial curve]
Cc1ccc(-c2nc3nc(C)cc(Nc4ccccc4O)n3n2)cc1 | – | inconclusive: 16.4 µM [cytotoxic, single point]
COc1ccc(-c2csc(Nc3cccc(C)n3)n2)cc1C | inactive: -2.56% | –
CCOc1ccccc1NC(=O)Nc1cnccn1 | – | active: 6.51 µM
COC(=O)c1ccc(COc2ccccc2/C=C(\C#N)C(=O)Nc2ccccc2C)cc1 | inactive: 18.1% | –
CC1CCC(C(C)C)C(OCC[N+](C)(C)C)C1 (stereo unspecified) | – | inconclusive: 10.3 µM [rising, partial curve, poor fit]
CCOc1cc(C)c(S(=O)(=O)Nc2ccc3cn[nH]c3c2)cc1C | – | inconclusive: 2.59 µM [cytotoxic, full curve, poor fit]
Cc1csc(NC(=O)c2ccc(OCC3CCCO3)cc2)n1 (stereo unspecified) | – | active: 13 µM
NC(=O)c1cc(-c2ccccc2)sc1NC(=O)Cc1ccc(S(=O)(=O)N2CCOCC2)s1 | – | inconclusive: 10.3 µM [cytotoxic, partial curve]
C=CCOC(=O)C1=C[C@@H](c2ccc(C(F)(F)F)cc2)[C@H](CCCO)[C@@H](OCC)O1 | inactive: -7.6% | –

An excerpt from above in order of SMILES length, smallest number first:
SMILES | activity change, negative = cytotoxicity | Potency
CCOc1ccccc1NC(=O)Nc1cnccn1 | – | active: 6.51 µM
Cc1csc(NC(=O)c2ccc(OCC3CCCO3)cc2)n1 (stereo unspecified) | – | active: 13 µM
CCOc1cc(C)c(S(=O)(=O)Nc2ccc3cn[nH]c3c2)cc1C | – | inconclusive: 2.59 µM [cytotoxic, full curve, poor fit]
COc1ccc2oc(C(=O)OC(C)C(=O)N(C)c3ccccc3)c(C)c2c1 (stereo unspecified) | – | inconclusive: 9.2 µM [cytotoxic, partial curve]
CCCCN1C(=O)C(CC(=O)NCc2cccs2)CC(C(=O)N2CCOCC2)=C1C (stereo unspecified) | inactive: 21.1% | –
CCOC(=O)c1ccccc1NC(=O)N1CCC(N2CCN(Cc3ccccc3)C(=O)C2=O)CC1 | – | inconclusive: 29.1 µM [rising, single point]

Later entries:

SMILES | activity change, negative = cytotoxicity | Potency
Cc1cccc(OCCNC(=O)CCNS(=O)(=O)c2ccc3ccccc3c2)c1 | – | active: 18.4 µM
CCOC(=O)c1cccc(NC(=O)CCCn2c(=O)c3cccn3c3cccnc32)c1 | – | inconclusive: 29.1 µM [cytotoxic, single point]
CN(C)S(=O)(=O)n1cc(/C=C(\NC(=O)c2ccccc2)C(=O)NCCCn2ccnc2)c2ccccc21 | – | inconclusive: 29.1 µM [rising, single point] and inconclusive: 18.4 µM [rising, single point]
CCOc1ccc(CNC(=O)c2ccc3c(c2)c(C)c(C)n3Cc2ccc(Cl)cc2)cc1 | inactive: -3.39% | –
O=[N+]([O-])c1cc(-n2cnnn2)ccc1N1CCC(Cc2ccccc2)CC1 | – | active: 23.1 µM
COc1ccc(Cl)c(Cn2c(NCc3ccco3)nc3c2c(=O)n(C)c(=O)n3C)c1 | – | inconclusive: 0.731 µM [cytotoxic, partial curve, poor fit]
CCNc1ccc(-c2nc(-c3ccco3)no2)cc1[N+](=O)[O-] | – | inconclusive: 0.0651 µM [cytotoxic, full curve]
O=C(O)Cc1ccc(NC(=O)C(c2ccccc2)c2ccccc2)cc1 | inactive: -2.36% | –
COC(=O)CCC(=O)c1ccn(S(=O)(=O)c2ccccc2)c1 | inactive: -11.1% | –
CCOc1ccccc1C(=O)Nc1ccsc1C(=O)OC | – | active: 7.31 µM
CCCN(CCC)CCCNc1ccc2nnc(-c3ccc(F)cc3)n2n1 | – | inconclusive: 29.1 µM [rising, single point]
Oc1cc(NCCc2cccnc2)cc2cccnc12 | – | inconclusive: 20.6 µM [cytotoxic, single point]
O=C(NCc1ccccc1)c1c(Cl)nc(Cl)c(Cl)c1Cl | inactive: 0% | –
CCOC(=O)N1CCN(CC(=O)N2c3ccccc3CCc3ccccc32)CC1 | inactive: 1.97% | –
COc1ccc(OC)c(C2=NOC(C(=O)NCCN3CCOCC3)C2)c1 (stereo unspecified) | – | inconclusive: 29.1 µM [cytotoxic, single point]
CN1CCN(C(=O)c2cnn3c(C(F)(F)F)cc(-c4ccc5c(c4)OCO5)nc23)CC1 | – | inconclusive: 8.2 µM [cytotoxic, partial curve]
CCOC(=O)c1cnn(-c2cc(Oc3ccccc3)ncn2)c1N | – | inconclusive: 9.2 µM [rising, partial curve, poor fit]
Cc1ccc2oc(=O)n(CCCOc3ccc(Cl)cc3)c2c1 | – | inconclusive: 5.17 µM [rising, full curve]
CCCC(C(=O)NC(C)(C)C)N(Cc1ccc(F)cc1)C(=O)c1snc(C(N)=O)c1N (stereo unspecified) | – | inconclusive: 2.31 µM [cytotoxic, full curve, poor fit]
CC(=O)Oc1oc(-c2ccccc2)nc1C=Nc1ccc(N(C)C)cc1 | inactive: 16.8% | –
CCOc1ccccc1NC(=S)C(=C([O-])c1ccc2c(c1)OCCO2)[n+]1ccc(CC)cc1 | inactive: -25.9% | –
O=C1c2[nH]nc(-c3ccc(Br)cc3)c2C(c2cccc(O)c2)N1c1ccc(Cl)cc1 (stereo unspecified) | – | inconclusive: 29.1 µM [cytotoxic, single point]
CCOc1ccccc1NC(=O)COC(=O)c1cnc(C)cn1 | inactive: -0.0434% | –
CCn1c(SCC(=O)NC2CC2)nnc1-c1ccncc1 | – | inconclusive: 29.1 µM [rising, single point]

SMILES | activity change, negative = cytotoxicity | Potency
O=C(O)c1ccc(Nc2nc(-c3cc4ccccc4oc3=O)cs2)cc1O | inactive: 8.27% | –
C=CC[C@H](CC(=O)N(CCO)Cc1ccccc1)C(=O)NCCOC(=O)[C@H](CC=C)CC(=O)OC(C)(C)C | inactive: 0.0002% | –
O=C(CCCOc1ccc(Cl)cc1Cl)N1CCCc2ccccc21 | – | inconclusive: 32.6 µM [cytotoxic, partial curve, poor fit]
CCOC(=O)Cc1csc(NC(=O)/C=C\c2ccccc2)n1 | – | inconclusive: 29.1 µM [cytotoxic, single point]
COc1ccc(-c2nn(-c3ccccc3)cc2C(=O)N2CCOCC2)cc1 | inactive: -29.7% | –
CN(C)S(=O)(=O)c1cccc(NC(=O)COC(=O)c2ccc3c(c2)OCO3)c1 | – | inconclusive: 16.4 µM [rising, single point]
S=c1[nH]nc(-c2ccc(Cl)cc2Cl)n1-c1ccc(Cl)cc1 | – | inconclusive: 18.4 µM [rising, single point]
CNS(=O)(=O)c1cccc(C(=O)OCc2cc(Cl)cc3c2OCOC3)c1 | – | active: 18.4 µM
O=C(CN1C(=O)/C(=C\c2cccc(Br)c2)Oc2ccccc21)NCCCN1CCOCC1 | – | inconclusive: 3.66 µM [cytotoxic, partial curve, poor fit]
Cc1ccc(NC(=O)CCOc2ccccc2C)cc1C | – | inconclusive: 18.4 µM [cytotoxic, single point]
Cc1ccc(-c2nnc3ccc(SCC(=O)NCc4ccco4)nn23)cc1 | – | inconclusive: 29.1 µM [cytotoxic, single point]
COc1ccc(CCNC(=O)c2ccc3c(c2)N(Cc2cccc(Cl)c2)C(=O)CS3)cc1OC | – | inconclusive: 16.4 µM [cytotoxic, single point]
O=S(=O)(Nc1ccc2cn[nH]c2c1)c1ccc(Cl)cc1 | – | inconclusive: 29.1 µM [cytotoxic, single point]
Cn1c(=O)n(CC(=O)N2CCN(c3nnc(-c4ccccc4)c4ccccc34)CC2)c2ccccc21 | – | inconclusive: 20.6 µM [cytotoxic, partial curve]
O=C(CSc1nnc(-c2ccc3c(c2)OCO3)o1)Nc1ncc(Cl)cc1Cl | – | inconclusive: 29.1 µM [cytotoxic, single point]
O=C(NC(=S)Nc1nc(-c2cccc([N+](=O)[O-])c2)cs1)c1cc(Cl)ccc1Cl | – | inconclusive: 23.1 µM [cytotoxic, single point]
Cc1cccc(Nc2ccccc2C(=O)NCc2ccco2)c1C | – | active: 18.4 µM
Cc1nc(Nc2ccc(Cl)cc2)c2oc3ccccc3c2n1 | inactive: -5.58% | –
CC(=O)Nc1cc(-c2cccc(N)c2)cn2c(-c3ccccc3)cnc12 | inactive: 3.75% | –
Cn1cnnc1SCC(=O)Nc1ccc2ccccc2c1 | – | inconclusive: 6.51 µM [rising, partial curve, poor fit]
COc1cccc(/C=C2\SC(=S)N(CCCC(=O)Nc3ccc(C(=O)O)cc3)C2=O)c1 | – | inconclusive: 3.66 µM [rising, partial curve, poor fit]
COc1ccc(NC(=O)CSc2nnc(NC(=O)C3CC3)s2)cc1OC | – | inconclusive: 16.4 µM [rising, single point]
C=C1C(=O)[C@]23C[C@H]1CC[C@H]2[C@]1(C)[C@@H](OC(C)=O)CC[C@@](C)(C(=O)OC)[C@H]1C[C@@H]3OC(C)=O | inactive: 0% | –
